Source: the supplement of paper PMC4604168 (melanoma cell lines)
The list shows a part of the results. Repeats are few or missing, and single values can be far off.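 Imaging used 1,536-well plates; nuclei positive for cleaved PARP by antibody were divided by total DNA-stained nuclei to yield the apoptosis fraction. Doses for screening kept most cells viable, and cell lines differ markedly in resting and induced cleaved-PARP levels.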

Tested on: CBRC014 (line from a melanoma biopsy)
Test: cleaved PARP positive nuclei fraction relative to DMSO control; melanoma cells; higher = more apoptosis
Conditions: library dose: low library concentration; 72 h

Row | Structure (SMILES) | cleaved PARP positive nuclei fraction
1 | Nc1ncn([C@H]2C[C@H](O)[C@@H](CO)O2)c(=O)n1 [decitabine] + Oc1cc(-c2nc(-c3ccccc3)[nH]c2-c2ccncc2)ccc1Cl [L779450] (first compound 0.1 µM, partner dose 0.2 µM) | 127%
2 | CNC(=O)c1cc(Oc2ccc(NC(=O)Nc3ccc(Cl)c(C(F)(F)F)c3)cc2)ccn1 [sorafenib] + Cc1cc([N+](=O)[O-])ccc1NS(=O)(=O)c1cc(Cl)ccc1Cl [FH535] (first compound 0.4 µM, partner dose 1 µM) | 220%
3 | O=C(O)c1ccc2c(c1)nc(Nc1cccc(Cl)c1)c1ccncc12 + N#Cc1c(O)c2c(-c3ccc(-c4ccccc4O)cc3)csc2[nH]c1=O [A769662] (first compound 0.4 µM, partner dose 2 µM) | 190%
4 | Nc1ccn([C@@H]2O[C@H](CO)[C@@H](O)C2(F)F)c(=O)n1 [gemcitabine] + COc1ccc(COc2ccc(Cc3cnc(N)nc3N)cc2OC)cc1 [GW2580] (first compound 0.0004 µM, partner dose 1 µM) | 136%
5 | Nc1ncn([C@H]2C[C@H](O)[C@@H](CO)O2)c(=O)n1 [decitabine] + O=C1NC(=O)/C(=C/c2ccc(-c3ccc(F)cc3O)o2)S1 [AS252424] (first compound 0.1 µM, partner dose 1 µM) | 86.4%
6 | CCCS(=O)(=O)Nc1ccc(F)c(C(=O)c2c[nH]c3ncc(Cl)cc23)c1F + Cn1cc(/C=C2\C(=O)Nc3cccnc32)c2ccccc21 [GW441756] (first compound 0.08 µM, partner dose 0.4 µM) | 139%
